From patent US20180052165A1
No constants are given. Whether binding was seen depends on the method and setting. Some results given as binding are weak or reduced against the parent protein; the word gives no strength.

Amino acid sequences for entries named in this document (tags omitted). A change or cut given only in a name is not applied to a line headed by its entry. Residues count along the entry.
UniProt O95832: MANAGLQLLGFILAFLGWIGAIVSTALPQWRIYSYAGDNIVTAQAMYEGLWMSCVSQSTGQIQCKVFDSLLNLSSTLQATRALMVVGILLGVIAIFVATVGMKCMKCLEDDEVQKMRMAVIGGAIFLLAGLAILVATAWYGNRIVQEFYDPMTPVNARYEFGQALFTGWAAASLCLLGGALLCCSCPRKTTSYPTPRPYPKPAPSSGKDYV
claudin-1 (CLDN1) extracellular loop mimetic peptide (Cldn1 53-80 with biotinylated C-terminus): residues 53-80 of O95832

B1: phage-displayed peptide RTSPSSR (SEQ ID NO: 1) (peptide)
peptide: RTSPSSR
B2: phage-displayed peptide HLQLQRL (SEQ ID NO: 2) (peptide)
peptide: HLQLQRL
B3: phage-displayed peptide IQTNPTM (SEQ ID NO: 3) (peptide)
peptide: IQTNPTM
B4: phage-displayed peptide RSLTQQT (SEQ ID NO: 4) (peptide)
peptide: RSLTQQT
B5: phage-displayed peptide SLQHLRS (SEQ ID NO: 5) (peptide)
peptide: SLQHLRS
B6: phage-displayed peptide IQLKINS (SEQ ID NO: 6) (peptide)
peptide: IQLKINS
B7: phage-displayed peptide ITIRQHI (SEQ ID NO: 7) (peptide)
peptide: ITIRQHI
B8: phage-displayed peptide RRSNSQL (SEQ ID NO: 8) (peptide)
peptide: RRSNSQL
B9: phage-displayed peptide LNRIRRR (SEQ ID NO: 9) (peptide)
peptide: LNRIRRR
B10: phage-displayed peptide NNMKKIT (SEQ ID NO: 10) (peptide)
peptide: NNMKKIT
B11: phage-displayed peptide LQSLISK (SEQ ID NO: 11) (peptide)
peptide: LQSLISK
B12: phage-displayed peptide IHTRRRK (SEQ ID NO: 12) (peptide)
peptide: IHTRRRK
B13: phage-displayed peptide RPNKPRI (SEQ ID NO: 13) (peptide)
peptide: RPNKPRI
B14: phage-displayed peptide RHRRSPI (SEQ ID NO: 14) (peptide)
peptide: RHRRSPI
B15: phage-displayed peptide ITLSITQ (SEQ ID NO: 15) (peptide)
peptide: ITLSITQ
B16: phage-displayed peptide KTQLMII (SEQ ID NO: 16) (peptide)
peptide: KTQLMII
B17: phage-displayed peptide RPRQLQR (SEQ ID NO: 17) (peptide)
peptide: RPRQLQR
B18: phage-displayed peptide TRRHTII (SEQ ID NO: 18) (peptide)
peptide: TRRHTII
B19: phage-displayed peptide RIIHKNM (SEQ ID NO: 19) (peptide)
peptide: RIIHKNM
B20: phage-displayed peptide LLTISPK (SEQ ID NO: 20) (peptide)
peptide: LLTISPK
B21: phage-displayed peptide LLPMHMN (SEQ ID NO: 21) (peptide)
peptide: LLPMHMN
B22: phage-displayed peptide TSPMLSI (SEQ ID NO: 22) (peptide)
peptide: TSPMLSI
B23: phage-displayed peptide LRNNIRH (SEQ ID NO: 23) (peptide)
peptide: LRNNIRH
B24: unlabeled RTS* peptide (peptide)
peptide: RTSPSSR

Each binder was assayed against claudin-1 (CLDN1) extracellular loop mimetic peptide (Cldn1 53-80 with biotinylated C-terminus) (human) (UniProt O95832) (assay: M13 phage display biopanning against the biotinylated claudin-1 fragment; strong binders eluted).
B1 was tested, and the binding was “binds”.
For B2, the binding was “binds”.
For B3, the binding was “binds”.
In the case of B4, the binding is reported as “binds”.
For B5, the binding was “binds”.
With B6 the binding was “binds”.
For B7, the binding was “binds”.
B8 was tested, and the binding was “binds”.
For B9, the binding was “binds”.
For B10, the binding was “binds”.
For B11, the binding was “binds”.
B12 was tested, and the binding was “binds”.
In the case of B13, the binding is reported as “binds”.
B14 was tested, and the binding was “binds”.
B15 was tested, and the binding was “binds”.
With B16 the binding was “binds”.
In the case of B17, the binding is reported as “binds”.
With B18 the binding was “binds”.
With B19 the binding was “binds”.
For B20, the binding was “binds”.
With B21 the binding was “binds”.
B22 was tested, and the binding was “binds”.
B23 was tested, and the binding was “binds”.

Each binder was assayed against human claudin-1 (human) (UniProt O95832) (assay: competition with 5 µM RTS*-Cy5.5 on SW620 cells, confocal fluorescence; compared with unlabeled SPT*).
B24 was tested, and the binding was “binds”.
